According to the supplement of paper PMC10849652:
This is one part of the list.

Protein sequences, listed by entry. Tags and fused reporters are not part of them. Lines headed by an entry give the natural chain unless they say otherwise; changes in a name come on top.
UniProt Q16659, whole entry, looked up: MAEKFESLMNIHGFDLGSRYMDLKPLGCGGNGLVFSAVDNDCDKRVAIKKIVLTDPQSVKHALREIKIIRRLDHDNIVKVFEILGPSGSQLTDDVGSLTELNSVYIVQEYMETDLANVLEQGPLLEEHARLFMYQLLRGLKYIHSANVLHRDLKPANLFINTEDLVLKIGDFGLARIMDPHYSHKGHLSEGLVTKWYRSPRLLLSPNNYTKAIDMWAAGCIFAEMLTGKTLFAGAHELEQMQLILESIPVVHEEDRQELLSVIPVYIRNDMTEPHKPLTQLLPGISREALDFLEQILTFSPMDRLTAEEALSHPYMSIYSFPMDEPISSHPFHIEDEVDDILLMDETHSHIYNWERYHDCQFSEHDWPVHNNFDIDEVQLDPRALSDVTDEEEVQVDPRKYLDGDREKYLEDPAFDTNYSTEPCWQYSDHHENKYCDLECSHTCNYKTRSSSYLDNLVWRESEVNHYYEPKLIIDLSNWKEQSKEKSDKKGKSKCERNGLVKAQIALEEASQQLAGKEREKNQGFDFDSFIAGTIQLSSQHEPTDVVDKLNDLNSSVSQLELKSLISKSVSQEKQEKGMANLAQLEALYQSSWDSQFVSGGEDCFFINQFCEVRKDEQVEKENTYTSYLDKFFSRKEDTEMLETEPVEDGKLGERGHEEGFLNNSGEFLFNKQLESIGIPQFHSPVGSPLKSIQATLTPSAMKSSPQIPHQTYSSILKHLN
UniProt Q9ULX9: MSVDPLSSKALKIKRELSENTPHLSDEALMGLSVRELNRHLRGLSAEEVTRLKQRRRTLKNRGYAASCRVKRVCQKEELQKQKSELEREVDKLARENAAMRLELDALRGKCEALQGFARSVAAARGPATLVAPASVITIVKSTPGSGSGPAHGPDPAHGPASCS
UniProt O95382: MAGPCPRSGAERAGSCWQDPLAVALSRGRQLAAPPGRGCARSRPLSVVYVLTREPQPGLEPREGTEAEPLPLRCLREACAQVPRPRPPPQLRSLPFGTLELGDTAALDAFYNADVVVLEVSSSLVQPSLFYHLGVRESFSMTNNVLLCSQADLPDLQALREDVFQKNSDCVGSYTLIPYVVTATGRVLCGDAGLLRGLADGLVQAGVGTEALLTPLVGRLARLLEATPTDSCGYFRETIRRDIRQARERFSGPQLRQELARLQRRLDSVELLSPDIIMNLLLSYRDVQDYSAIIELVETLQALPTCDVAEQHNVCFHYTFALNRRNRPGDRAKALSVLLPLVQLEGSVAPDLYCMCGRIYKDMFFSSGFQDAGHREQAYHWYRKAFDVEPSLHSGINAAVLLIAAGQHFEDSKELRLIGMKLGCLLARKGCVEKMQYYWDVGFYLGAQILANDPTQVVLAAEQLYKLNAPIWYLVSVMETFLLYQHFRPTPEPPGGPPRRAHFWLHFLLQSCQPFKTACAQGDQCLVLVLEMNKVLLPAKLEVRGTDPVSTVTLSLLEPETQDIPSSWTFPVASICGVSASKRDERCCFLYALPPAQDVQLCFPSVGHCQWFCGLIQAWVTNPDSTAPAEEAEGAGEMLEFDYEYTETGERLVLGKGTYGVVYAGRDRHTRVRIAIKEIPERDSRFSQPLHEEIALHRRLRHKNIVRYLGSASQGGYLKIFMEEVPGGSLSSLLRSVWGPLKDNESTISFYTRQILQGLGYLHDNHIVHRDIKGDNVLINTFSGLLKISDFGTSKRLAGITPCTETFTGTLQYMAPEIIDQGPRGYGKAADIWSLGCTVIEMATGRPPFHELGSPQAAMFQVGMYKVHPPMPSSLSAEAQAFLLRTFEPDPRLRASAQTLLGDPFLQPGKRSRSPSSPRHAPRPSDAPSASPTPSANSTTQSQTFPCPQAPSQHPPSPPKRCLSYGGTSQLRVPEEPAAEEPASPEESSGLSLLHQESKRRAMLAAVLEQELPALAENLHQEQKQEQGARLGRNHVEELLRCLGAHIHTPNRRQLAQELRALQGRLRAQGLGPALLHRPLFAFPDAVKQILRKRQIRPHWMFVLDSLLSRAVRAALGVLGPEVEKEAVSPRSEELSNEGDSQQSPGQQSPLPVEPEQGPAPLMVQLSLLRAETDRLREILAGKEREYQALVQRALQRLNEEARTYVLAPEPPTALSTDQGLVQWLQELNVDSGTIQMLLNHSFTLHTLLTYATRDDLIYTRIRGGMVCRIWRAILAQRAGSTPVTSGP
UniProt P36941: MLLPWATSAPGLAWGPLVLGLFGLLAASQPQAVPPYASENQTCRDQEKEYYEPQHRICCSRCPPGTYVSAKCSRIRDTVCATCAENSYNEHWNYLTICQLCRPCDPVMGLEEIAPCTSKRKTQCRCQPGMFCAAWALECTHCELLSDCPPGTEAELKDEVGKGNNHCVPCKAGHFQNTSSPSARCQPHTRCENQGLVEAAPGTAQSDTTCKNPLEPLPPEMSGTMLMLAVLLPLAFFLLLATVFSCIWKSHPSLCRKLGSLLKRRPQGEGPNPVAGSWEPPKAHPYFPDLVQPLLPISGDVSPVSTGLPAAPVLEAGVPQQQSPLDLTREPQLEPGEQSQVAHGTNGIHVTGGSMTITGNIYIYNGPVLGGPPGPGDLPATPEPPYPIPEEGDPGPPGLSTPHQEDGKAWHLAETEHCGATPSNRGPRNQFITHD
UniProt Q9Y2U5: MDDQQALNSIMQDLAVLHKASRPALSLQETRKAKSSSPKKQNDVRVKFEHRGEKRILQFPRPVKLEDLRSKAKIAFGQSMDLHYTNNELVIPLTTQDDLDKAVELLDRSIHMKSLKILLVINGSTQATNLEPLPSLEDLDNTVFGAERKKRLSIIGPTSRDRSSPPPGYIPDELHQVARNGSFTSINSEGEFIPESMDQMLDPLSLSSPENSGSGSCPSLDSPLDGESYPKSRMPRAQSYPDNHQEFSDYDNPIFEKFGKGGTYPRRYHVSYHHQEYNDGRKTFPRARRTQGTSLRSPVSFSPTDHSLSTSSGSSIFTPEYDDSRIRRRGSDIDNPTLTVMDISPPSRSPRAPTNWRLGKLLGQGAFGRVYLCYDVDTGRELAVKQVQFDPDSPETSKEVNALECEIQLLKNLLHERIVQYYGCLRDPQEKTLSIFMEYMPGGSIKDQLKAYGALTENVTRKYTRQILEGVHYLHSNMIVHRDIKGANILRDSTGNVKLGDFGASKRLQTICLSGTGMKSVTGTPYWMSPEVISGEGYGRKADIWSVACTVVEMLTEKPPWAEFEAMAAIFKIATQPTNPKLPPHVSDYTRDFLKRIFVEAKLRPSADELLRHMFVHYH
UniProt Q9Y4K4: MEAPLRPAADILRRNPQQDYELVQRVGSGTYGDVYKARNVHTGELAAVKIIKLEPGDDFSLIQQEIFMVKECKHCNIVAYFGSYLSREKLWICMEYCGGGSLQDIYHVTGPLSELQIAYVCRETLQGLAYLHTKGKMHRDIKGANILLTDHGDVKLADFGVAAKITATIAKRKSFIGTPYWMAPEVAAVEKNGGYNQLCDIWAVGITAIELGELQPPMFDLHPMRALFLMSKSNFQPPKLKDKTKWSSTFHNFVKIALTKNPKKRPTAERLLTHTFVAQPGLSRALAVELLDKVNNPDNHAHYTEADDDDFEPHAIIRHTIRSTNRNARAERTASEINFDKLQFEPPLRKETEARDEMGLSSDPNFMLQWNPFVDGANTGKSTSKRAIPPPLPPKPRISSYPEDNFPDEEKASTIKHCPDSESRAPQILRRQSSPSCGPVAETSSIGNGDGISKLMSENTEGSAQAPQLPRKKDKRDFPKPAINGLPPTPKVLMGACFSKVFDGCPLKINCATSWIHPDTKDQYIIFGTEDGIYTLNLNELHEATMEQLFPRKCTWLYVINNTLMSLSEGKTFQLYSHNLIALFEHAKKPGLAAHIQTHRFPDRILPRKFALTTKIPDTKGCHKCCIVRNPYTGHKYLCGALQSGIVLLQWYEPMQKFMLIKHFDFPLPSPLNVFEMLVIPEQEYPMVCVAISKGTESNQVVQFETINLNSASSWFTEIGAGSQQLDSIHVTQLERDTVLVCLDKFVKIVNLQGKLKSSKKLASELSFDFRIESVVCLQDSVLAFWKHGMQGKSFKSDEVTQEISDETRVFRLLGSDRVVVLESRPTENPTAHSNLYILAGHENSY
UniProt Q13233: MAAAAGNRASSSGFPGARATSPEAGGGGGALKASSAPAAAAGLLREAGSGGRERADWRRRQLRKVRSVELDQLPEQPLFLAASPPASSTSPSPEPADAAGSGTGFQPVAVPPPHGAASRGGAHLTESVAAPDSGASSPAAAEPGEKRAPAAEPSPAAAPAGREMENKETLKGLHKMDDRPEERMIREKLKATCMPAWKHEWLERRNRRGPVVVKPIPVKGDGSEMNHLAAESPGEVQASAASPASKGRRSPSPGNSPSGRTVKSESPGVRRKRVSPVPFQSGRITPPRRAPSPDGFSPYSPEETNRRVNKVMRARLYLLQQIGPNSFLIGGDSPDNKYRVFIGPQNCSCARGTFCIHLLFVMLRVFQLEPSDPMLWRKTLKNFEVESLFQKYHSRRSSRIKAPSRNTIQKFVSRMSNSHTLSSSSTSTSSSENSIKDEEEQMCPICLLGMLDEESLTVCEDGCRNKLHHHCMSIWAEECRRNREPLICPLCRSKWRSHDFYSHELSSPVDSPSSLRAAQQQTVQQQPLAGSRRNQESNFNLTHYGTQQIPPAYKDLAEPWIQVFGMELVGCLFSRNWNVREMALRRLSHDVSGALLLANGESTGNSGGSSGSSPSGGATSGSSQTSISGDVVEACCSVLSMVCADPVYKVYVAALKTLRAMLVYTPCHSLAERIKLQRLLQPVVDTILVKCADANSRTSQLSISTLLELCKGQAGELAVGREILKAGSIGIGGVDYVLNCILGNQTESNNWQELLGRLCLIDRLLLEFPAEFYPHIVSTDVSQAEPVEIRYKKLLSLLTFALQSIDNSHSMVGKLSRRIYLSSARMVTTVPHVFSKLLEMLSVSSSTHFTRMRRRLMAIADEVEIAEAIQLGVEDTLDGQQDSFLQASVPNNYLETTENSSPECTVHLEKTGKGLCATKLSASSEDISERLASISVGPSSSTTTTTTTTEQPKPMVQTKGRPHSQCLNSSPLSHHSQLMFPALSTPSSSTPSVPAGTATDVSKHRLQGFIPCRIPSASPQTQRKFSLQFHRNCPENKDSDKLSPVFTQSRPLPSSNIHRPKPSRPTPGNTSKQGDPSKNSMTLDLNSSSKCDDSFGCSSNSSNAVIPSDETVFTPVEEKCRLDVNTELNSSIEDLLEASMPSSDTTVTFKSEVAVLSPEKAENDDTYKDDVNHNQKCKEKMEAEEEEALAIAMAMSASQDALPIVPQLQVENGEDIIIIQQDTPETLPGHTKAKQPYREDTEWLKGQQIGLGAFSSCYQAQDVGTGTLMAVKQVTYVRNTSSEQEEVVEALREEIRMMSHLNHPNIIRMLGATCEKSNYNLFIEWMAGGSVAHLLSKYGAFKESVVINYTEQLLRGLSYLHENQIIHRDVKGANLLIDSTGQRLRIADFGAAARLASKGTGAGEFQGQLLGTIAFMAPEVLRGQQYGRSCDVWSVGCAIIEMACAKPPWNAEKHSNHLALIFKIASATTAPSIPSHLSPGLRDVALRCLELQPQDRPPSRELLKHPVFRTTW
UniProt Q14244: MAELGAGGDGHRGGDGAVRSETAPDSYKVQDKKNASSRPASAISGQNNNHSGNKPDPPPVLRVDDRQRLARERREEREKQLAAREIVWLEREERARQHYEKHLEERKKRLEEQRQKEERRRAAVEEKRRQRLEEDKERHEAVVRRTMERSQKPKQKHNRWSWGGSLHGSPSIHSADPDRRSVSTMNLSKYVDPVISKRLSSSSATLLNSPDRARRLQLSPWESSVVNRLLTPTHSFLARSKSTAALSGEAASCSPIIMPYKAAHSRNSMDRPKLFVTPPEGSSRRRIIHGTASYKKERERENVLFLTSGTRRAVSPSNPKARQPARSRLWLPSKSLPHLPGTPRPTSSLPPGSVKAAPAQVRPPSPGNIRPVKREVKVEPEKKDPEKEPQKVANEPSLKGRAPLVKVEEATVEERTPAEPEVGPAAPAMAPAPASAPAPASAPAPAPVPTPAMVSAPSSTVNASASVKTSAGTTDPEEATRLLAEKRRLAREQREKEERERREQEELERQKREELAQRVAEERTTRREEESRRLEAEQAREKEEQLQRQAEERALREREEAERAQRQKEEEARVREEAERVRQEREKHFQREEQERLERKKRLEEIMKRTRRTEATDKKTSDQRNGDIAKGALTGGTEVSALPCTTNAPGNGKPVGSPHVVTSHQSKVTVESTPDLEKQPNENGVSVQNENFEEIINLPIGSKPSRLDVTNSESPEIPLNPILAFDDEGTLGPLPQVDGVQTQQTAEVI
UniProt Q86UD3: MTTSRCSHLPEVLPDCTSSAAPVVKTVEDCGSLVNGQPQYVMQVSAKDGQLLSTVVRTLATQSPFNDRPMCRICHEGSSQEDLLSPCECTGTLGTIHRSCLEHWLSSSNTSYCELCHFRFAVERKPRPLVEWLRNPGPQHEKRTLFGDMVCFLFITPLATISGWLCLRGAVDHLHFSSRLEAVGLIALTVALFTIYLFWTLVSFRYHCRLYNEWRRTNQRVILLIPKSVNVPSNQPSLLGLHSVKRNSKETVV

Key:
Assay in all cases: log2 fold change, soluble protein after heating vs DMSO (PISA); higher = thermal stabilisation; K562 lysate, 10 uM; active = over 0.2 and 3.5 SD of the protein, either way, in both replicates (recomputed)
erlotinib = compound: C#Cc1cccc(Nc2ncnc3cc(OCCOC)c(OCCOC)cc23)c1 [erlotinib]
Outline: (§1)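 Following dounce homogenisation of K562 pellets in PBS pH 7.4 with 1 mM MgCl2, crude extract at 1 mg/mL protein was incubated for 30 min with 10 μM compound. Aliquots were then heated for 3 min over 48°C-58°C and pooled, NP-40 was added to 0.5% at 4°C, and soluble protein was recovered as the supernatant at 21,000xg for 90 min. Channel-sum-equalised TMTpro 16plex LC-MS/MS quantified this protein. Each value, from duplicates, is a log-two fold change in thermal stability relative to solvent controls.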

[1] = compound: C/C(=N\NC(=O)C1=CC(=CC=C1)S(=O)(=O)N2CCOCC2)/C3=C(C=CC(=C3)Cl)O
Outline: as §1

[2] = compound: C1=CC(=CC=C1C2=NC3=C(N2)C=C(C=C3)C(=O)N)OC4=CC=C(C=C4)Cl
Outline: as §1

[3] = compound: C1=CC2=C(C=CC(=C2)/C=C\3/C(=O)NC(=NCC4=CC=CS4)S3)N=C1
Outline: as §1

[4] = compound: C1=CC2=NC=CN=C2C=C1/C=C/3\C(=O)NC(=O)S3
Outline: as §1

[5] = compound: C1=CC=C(C=C1)C2=NC(=C(N2)C3=CC=NC=C3)C4=CC(=C(C=C4)Cl)O
Outline: as §1

[6] = compound: C1=CC=C2C(=C1)C3=NNC4=CC=CC(=C43)C2=O
Outline: as §1

[7] = compound: C1CCN(C1)C(=O)NC2=CC=CC(=C2)NC3=NC=C(C(=N3)NCCC4=CN=CN4)Br
Outline: as §1

[8] = compound: C1CN(CCC1(CC2=CC=C(C=C2)Cl)N)C3=NC=NC4=C3C=CN4
Outline: as §1

IRAK-1-4 Inhibitor I = compound: C1COCCN1CCN2C3=CC=CC=C3N=C2NC(=O)C4=CC(=CC=C4)[N+](=O)[O-] [IRAK-1-4 Inhibitor I]
Outline: as §1

Measured: log2 fold change

MAPK6 (UniProt Q16659)
inactive: erlotinib -0.004 | [1] 0.036 | [2] 0.019 | [3] 0.006 | [4] 0.015 | [5] 0.001 | [6] 0.069 | [7] 0.068 | [8] 0.015 | IRAK-1-4 Inhibitor I -0.027

MAP4K3 (UniProt Q8IVH8)
inactive: [4] -0.024 | [5] -0.137 | IRAK-1-4 Inhibitor I -0.195

LTBP1 isoform 4 (UniProt Q14766)
inactive: erlotinib -0.102 | [2] 0.098 | [4] 0.013 | [7] 0.322 | [8] -0.005

MAP3K3 isoform 2 (UniProt Q99759)
inactive: erlotinib -0.121 | [1] -0.088 | [2] 0.083 | [3] 0.177 | [5] 0.009 | [6] 0.282 | [7] -0.055 | [8] -0.082 | IRAK-1-4 Inhibitor I -0.131

MAGEA4 (UniProt P43358)
inactive: erlotinib 0.004 | [1] 0.028 | [2] 0.015 | [3] 0.095 | [5] -0.015 | [6] -0.078 | [7] -0.024 | [8] -0.049 | IRAK-1-4 Inhibitor I 0.024

MANBAL (UniProt Q9NQG1)
inactive: erlotinib 0.021 | [2] -0.028 | [4] 0.05 | [5] 0.042 | [7] -0.049 | [8] 0.01 | IRAK-1-4 Inhibitor I -0.009

MAGEA12 (UniProt P43365)
inactive: [1] 0.004 | [3] -0.193 | [6] -0.113 | [7] -0.05 | [8] -0.127

MACF1 (UniProt E9PLY5)
inactive: [4] -0.054

MAPT isoform 7 (UniProt P10636)
inactive: [1] 0.025 | [3] 0.059 | [6] -0.046

MARCHF6 (UniProt O60337)
inactive: erlotinib 0.004 | [1] 0.008 | [2] 0.101 | [3] 0.042 | [4] -0.202 | [6] -0.133 | [7] 0.047 | [8] -0.023

MAFF (UniProt Q9ULX9)
inactive: erlotinib 0.011 | [1] -0.512 | [2] -0.093 | [3] 0.064 | [6] -0.024 | [7] 0.065 | [8] 0.022

MAP3K6 (UniProt O95382)
inactive: [1] 0.05 | [3] 0.183 | [6] 0.487 | [7] 0.033 | [8] -0.008

MAGEA2 (UniProt P43356)
inactive: [7] 0.004 | [8] -0.053

MAGEF1 (UniProt Q9HAY2)
inactive: erlotinib 0.231 | [2] 0.201 | [5] 0.111 | IRAK-1-4 Inhibitor I -0.142

LYL1 (UniProt P12980)
inactive: erlotinib 0.043 | [2] -0.097 | [4] -0.007

LYPLA1, A0A087X1K9
inactive: [1] -0.005 | [3] -0.388 | [5] -0.097 | [6] -0.061 | [7] -0.155 | [8] -0.023 | IRAK-1-4 Inhibitor I 0.089

LTBR (UniProt P36941)
inactive: erlotinib -0.05 | [2] 0.105 | [4] 0.26

MAST3 (UniProt O60307)
inactive: erlotinib -0.041 | [2] 0.023 | [5] 0.028 | [7] -0.002 | [8] 0.005 | IRAK-1-4 Inhibitor I 0.02

MAP3K2 (UniProt Q9Y2U5)
inactive: erlotinib -0.022 | [1] 0.009 | [2] 0.032 | [3] 0.037 | [4] 0.06 | [6] -0.157 | [7] -0.303 | [8] -0.08

MAP4K5 (UniProt Q9Y4K4)
inactive: erlotinib 0.032 | [1] -0.169 | [2] -0.025 | [3] -0.019 | [4] -0.002 | [5] 0.039 | [7] 0.089 | [8] -0.04 | IRAK-1-4 Inhibitor I -0.001

MAPK15 (UniProt Q8TD08)
inactive: erlotinib 0.04 | [2] 0.225 | [5] -0.054 | IRAK-1-4 Inhibitor I 0.069

LYN isoform 2 (UniProt P07948)
inactive: erlotinib -0.161 | [2] -0.093 | [5] 0.132 | [7] -0.035 | [8] -0.385 | IRAK-1-4 Inhibitor I 0.493

MAP3K1 (UniProt Q13233)
inactive: [1] 0.182 | [3] -0.02 | [5] 0.185 | [6] -0.01 | [7] -0.142 | [8] 0.1 | IRAK-1-4 Inhibitor I -0.008

MAP4K4 isoform 6 (UniProt O95819)
inactive: erlotinib 0.006 | [2] 0.156 | [4] 0.094 | [5] -0.061 | [7] 0.003 | [8] -0.078 | IRAK-1-4 Inhibitor I -0.049

MAFG (UniProt O15525)
inactive: erlotinib -0.029 | [2] 0.04 | [4] -0.025 | [5] -0.003 | [7] -0.046 | [8] 0.053 | IRAK-1-4 Inhibitor I 0.031

MARVELD1 (UniProt Q9BSK0)
inactive: erlotinib 0 | [1] -0.318 | [2] 0.025 | [3] 0.145 | [4] 0.029 | [6] -0.122

MAPKAP1 (UniProt Q9BPZ7)
inactive: erlotinib -0.091 | [2] -0.059 | [5] 0.062 | [7] 0.141 | [8] -0.181 | IRAK-1-4 Inhibitor I -0.19

MAPK11 (UniProt Q15759)
inactive: erlotinib -0.016 | [2] -0.037 | [4] -0.093 | [5] 0.228 | IRAK-1-4 Inhibitor I 0.021

LZTS2 (UniProt Q9BRK4)
inactive: erlotinib 0.055 | [1] -0.019 | [2] -0.013 | [3] -0.058 | [4] 0.024 | [6] -0.104 | [7] -0.267 | [8] -0.064

MAGEA3 (UniProt P43357)
inactive: [1] 0.108 | [3] 0.01 | [6] -0.078 | [7] 0.048 | [8] 0.042

MAP3K8 (UniProt P41279)
inactive: [4] -0.155

MAP7 (UniProt Q14244)
inactive: erlotinib -0.062 | [1] -0.139 | [2] 0.078 | [3] -0.058 | [4] -0.043 | [6] -0.067 | [7] -0.026 | [8] 0.01

MAPK7 (UniProt Q13164)
inactive: erlotinib -0.1 | [2] 0.012 | [7] -0.057 | [8] 0.032

Twelve neighbouring records from above:
LTBR (UniProt P36941)
inactive: erlotinib -0.05 | [2] 0.105 | [4] 0.26

MAST3 (UniProt O60307)
inactive: erlotinib -0.041 | [2] 0.023 | [5] 0.028 | [7] -0.002 | [8] 0.005 | IRAK-1-4 Inhibitor I 0.02

MAP3K2 (UniProt Q9Y2U5)
inactive: erlotinib -0.022 | [1] 0.009 | [2] 0.032 | [3] 0.037 | [4] 0.06 | [6] -0.157 | [7] -0.303 | [8] -0.08

MAP4K5 (UniProt Q9Y4K4)
inactive: erlotinib 0.032 | [1] -0.169 | [2] -0.025 | [3] -0.019 | [4] -0.002 | [5] 0.039 | [7] 0.089 | [8] -0.04 | IRAK-1-4 Inhibitor I -0.001

MAPK15 (UniProt Q8TD08)
inactive: erlotinib 0.04 | [2] 0.225 | [5] -0.054 | IRAK-1-4 Inhibitor I 0.069

LYN isoform 2 (UniProt P07948)
inactive: erlotinib -0.161 | [2] -0.093 | [5] 0.132 | [7] -0.035 | [8] -0.385 | IRAK-1-4 Inhibitor I 0.493

MAP3K1 (UniProt Q13233)
inactive: [1] 0.182 | [3] -0.02 | [5] 0.185 | [6] -0.01 | [7] -0.142 | [8] 0.1 | IRAK-1-4 Inhibitor I -0.008

MAP4K4 isoform 6 (UniProt O95819)
inactive: erlotinib 0.006 | [2] 0.156 | [4] 0.094 | [5] -0.061 | [7] 0.003 | [8] -0.078 | IRAK-1-4 Inhibitor I -0.049

MAFG (UniProt O15525)
inactive: erlotinib -0.029 | [2] 0.04 | [4] -0.025 | [5] -0.003 | [7] -0.046 | [8] 0.053 | IRAK-1-4 Inhibitor I 0.031

MARVELD1 (UniProt Q9BSK0)
inactive: erlotinib 0 | [1] -0.318 | [2] 0.025 | [3] 0.145 | [4] 0.029 | [6] -0.122

MAPKAP1 (UniProt Q9BPZ7)
inactive: erlotinib -0.091 | [2] -0.059 | [5] 0.062 | [7] 0.141 | [8] -0.181 | IRAK-1-4 Inhibitor I -0.19

MAPK11 (UniProt Q15759)
inactive: erlotinib -0.016 | [2] -0.037 | [4] -0.093 | [5] 0.228 | IRAK-1-4 Inhibitor I 0.021

(further entries)

LTBP4 (UniProt Q8N2S1)
inactive: erlotinib 0.06 | [2] 0.004 | [4] 0.267 | [5] 0.052 | [7] -0.051 | [8] -0.051 | IRAK-1-4 Inhibitor I 0.011

MAP3K5 (UniProt Q99683)
inactive: [1] -0.142 | [3] -0.046 | [4] -0.121 | [5] 0.006 | [6] 0.088 | [7] 0.152 | [8] 0.051 | IRAK-1-4 Inhibitor I 0.017

LY6E (UniProt Q16553)
inactive: [1] -0.095 | [3] 0.049 | [4] -0.033 | [6] -0.27 | [7] -0.02 | [8] 0.025

MARCHF3 (UniProt Q86UD3)
inactive: [1] 0.009 | [3] -0.07 | [6] 0.011 | [7] 0.04 | [8] 0.022

MAN2B2 (UniProt Q9Y2E5)
inactive: erlotinib 0.006 | [2] -0.019 | [4] -0.003 | [5] -0.035 | [7] -0.01 | [8] 0.045 | IRAK-1-4 Inhibitor I 0.009

MAGEA6 (UniProt P43360)
inactive: erlotinib 0.07 | [1] 0.023 | [2] 0.175 | [3] 0.101 | [6] 0.053 | [7] -0.143 | [8] -0.089

LYRM1 (UniProt O43325)
inactive: erlotinib -0.299 | [1] -0.087 | [2] -0.178 | [3] 0.01 | [6] 0.088
